Screening data, single-dose tests

Amino acid sequences for entries named in this document (tags omitted). Residues count along the entry.
UniProt P9WFT3, whole entry: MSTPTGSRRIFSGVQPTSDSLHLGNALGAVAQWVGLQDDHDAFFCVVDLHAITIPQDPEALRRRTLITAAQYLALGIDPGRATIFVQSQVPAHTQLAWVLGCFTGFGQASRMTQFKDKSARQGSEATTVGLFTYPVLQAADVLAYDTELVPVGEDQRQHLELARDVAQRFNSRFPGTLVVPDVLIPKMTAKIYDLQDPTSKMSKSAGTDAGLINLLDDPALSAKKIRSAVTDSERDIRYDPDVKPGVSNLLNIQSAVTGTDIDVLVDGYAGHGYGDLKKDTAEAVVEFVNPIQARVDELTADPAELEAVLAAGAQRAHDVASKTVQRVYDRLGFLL
UniProt P9WPC5, whole entry: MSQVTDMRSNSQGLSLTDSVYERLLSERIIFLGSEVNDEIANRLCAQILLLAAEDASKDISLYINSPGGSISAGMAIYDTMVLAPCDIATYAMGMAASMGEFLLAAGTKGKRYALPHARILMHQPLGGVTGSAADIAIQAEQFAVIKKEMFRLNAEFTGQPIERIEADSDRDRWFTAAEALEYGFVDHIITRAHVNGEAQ
UniProt P9WPC3, whole entry partner: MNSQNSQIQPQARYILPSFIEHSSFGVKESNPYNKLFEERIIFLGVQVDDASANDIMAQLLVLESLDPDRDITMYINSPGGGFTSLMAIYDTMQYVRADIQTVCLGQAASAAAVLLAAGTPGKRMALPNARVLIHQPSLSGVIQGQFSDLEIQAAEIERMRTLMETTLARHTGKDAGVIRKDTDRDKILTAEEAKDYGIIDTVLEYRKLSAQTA
UniProt Q4DA54, 1-478: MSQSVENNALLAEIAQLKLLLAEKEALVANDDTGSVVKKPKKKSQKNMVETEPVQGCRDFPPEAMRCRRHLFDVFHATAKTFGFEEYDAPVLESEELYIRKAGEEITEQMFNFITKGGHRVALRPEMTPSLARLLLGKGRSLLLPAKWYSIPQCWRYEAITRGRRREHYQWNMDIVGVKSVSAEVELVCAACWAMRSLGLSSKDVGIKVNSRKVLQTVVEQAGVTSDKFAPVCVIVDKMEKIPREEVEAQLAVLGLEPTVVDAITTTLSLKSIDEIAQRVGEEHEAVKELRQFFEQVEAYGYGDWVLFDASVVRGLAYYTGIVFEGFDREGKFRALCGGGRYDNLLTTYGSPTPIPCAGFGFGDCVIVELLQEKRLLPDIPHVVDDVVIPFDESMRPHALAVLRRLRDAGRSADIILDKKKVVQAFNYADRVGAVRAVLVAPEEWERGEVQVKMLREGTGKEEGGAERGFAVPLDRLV

Measurements from “University of Dundee, Small-Polar-MMV Screening Library” (2021), ChEMBL document CHEMBL3988442.

MtTrpRS: 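Tryptophan-tRNA ligase, Mycobacterium tuberculosis (UniProt P9WFT3). Enzyme assay of tryptophanyl-tRNA synthetase; the read-out is not stated. Compounds at 10 µM. Higher most likely means stronger inhibition; the record gives no direction and few retests gave an IC50. About 65,000 compounds were tested under these conditions; 0.098% (about 64) showed 50% or more at least once.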
ClpP1P2: 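Protease assay of ClpP1P2, read by the AMC dye that it sets free. Target: ClpP1P2, Mycobacterium tuberculosis (UniProt P9WPC5 and UniProt P9WPC3). Concentration: 50 µM. Direction is inferred from only a few compounds that gave an IC50; most scored high, so higher reads as stronger inhibition. Most other retested compounds had strongly negative values. Of about 69,000 compounds tested this way, about 10 (0.015%) reached 50% or more in at least one test.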
TcHisRS: 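Histidine-tRNA ligase, Trypanosoma cruzi CL Brener (UniProt Q4DA54). Enzyme assay of histidyl-tRNA synthetase; the read-out is not stated. Concentration: 30 µM. Higher reads as stronger inhibition (inferred: compounds with an IC50 in retests scored well above the rest). About 69,000 compounds were tested under these conditions; 0.045% (about 31) showed 50% or more at least once.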

Results are given as percent effect. The record does not define 0% and 100%; most values in the screen are far below 50% and negative numbers occur (in some assays of this library far below -100). Compounds were drawn at random from those tested, without regard to their results. A dash means the value is not listed here; it may have been measured.

structure | MtTrpRS | ClpP1P2 | TcHisRS
Cn1nccc1CN1CCOC(c2ccc(-c3cncnc3)cn2)C1 (stereo not shown) | -2.415 | -8.605 | 1.695
CCOCCNC(=O)c1cccnc1Sc1cc(OC)ccc1OC | - | 10.86 | 2.273
CC(=O)N1CCOCC2(CN(Cc3ccc(C)o3)CCO2)C1 (stereo not shown) | 0.7048 | 1.674 | 7.104
CCN(CC)CC(=O)N(C)C(c1cccc(F)c1)c1ccccn1 (stereo not shown) | 0.4351 | 8.265 | 6.286
Cn1cnc2c1C(COCc1ccccc1)N(Cc1cccnc1)CC2 (stereo not shown) | 0.8364 | -9.987 | 4.478
Cc1ccccc1-c1cc(C(=O)N2CCn3c(C)nnc3C2)[nH]n1 | -2.673 | 1.696 | -1.141
Cc1nnc2n1CCN(C(=O)c1cn(-c3ccc(F)cc3)nn1)C2 | 2.179 | 0.1747 | 7.035
Cc1nccc(N[C@H]2CN(CCC(=O)NC3CCCC3)C[C@@H]2C2CC2)n1 | -1.89 | -19.28 | 9.091
CCC(NC(=O)NCC(=O)Nc1ccc(F)cc1)c1ccncc1 (stereo not shown) | -2.577 | -11.17 | 13.69
CN1CCC(N(C)C(=O)c2cnn(-c3ccccc3Br)c2N)CC1 | - | 12.01 | 9.091
Cc1cccc2c1nc(CCO)n2-c1ccc(NS(C)(=O)=O)nc1 | 1.26 | -29.96 | 7.071
O=C(Nc1cnn(CC(F)F)c1)c1cccc(-n2cnnn2)c1 | 3.479 | 6.187 | 12.95
CC(C)N1CC(n2ccnc2-c2nccn2C)CC1=O (stereo not shown) | 1.127 | -4.822 | 2.4
CC(=O)N1CCC2(CCN(Cc3ccc(Cl)c(C(F)(F)F)c3)CC2)C1 | 3.313 | 2.118 | 5.785
CN(C)C(=O)C1CCN(C(=O)c2c[nH]c3cc(Cl)ccc23)CC1 | 0.3799 | 3.941 | -3.333
Cc1cc(C)cc(CN2C[C@@H]3OCCN(S(=O)(=O)N(C)C)[C@@H]3C2)c1 | 0.07048 | -5.056 | 2.151
Cc1cc(C)cc(OCCN(C)Cc2ccc(S(=O)(=O)N(C)C)o2)c1 | -0.288 | 22.43 | 2.97
Cc1c(CNC(=O)c2cn(CCC3CCCCN3)nn2)cnn1C (stereo not shown) | -3.82 | 4.013 | 3.409
O=c1cc(CN2CCCC2)nc2n1CCCN(Cc1ccsc1)C2 | 1.407 | 4.415 | -6.011
CCn1ncnc1CN(C/C=C/c1ccccc1)CCOC | 0.1679 | -12.33 | 2.041
O=c1ccc2c([nH]1)CCC(NCc1ccc(F)cc1)C2 (stereo not shown) | -2.087 | -10.21 | -5.607
Cc1cc2n(n1)CC(CNCc1ccccc1Cn1cccn1)CN2 (stereo not shown) | -6.749 | -33.35 | 12.1
Cc1ncsc1CN1C[C@@H]2CN(S(C)(=O)=O)CCO[C@@H]2C1 | -4.497 | 1.588 | 10.31
CCc1cc2cc(OC)c(OC)cc2nc1SCCN1CCCCC1 | 8.665 | -4.306 | 24.44
CSc1cccc(CNC(=O)[C@H]2CNC[C@H](C(=O)N3CCOCC3)C2)c1 | -3.382 | -18.57 | 4
Cc1cc(C)n(-c2nc(NCCCO)c3c4c(sc3n2)CCCC4)n1 | 1.22 | -20.23 | 26.09
O=C(O)C1CCCN1c1nc(-c2ccc(Cl)c(Cl)c2)cc(C(F)(F)F)n1 (stereo not shown) | -1.117 | -3.767 | -4.867
c1cnc2c(c1)cc(C1CCOCC1)n2CCN1CCOCC1 | 0.4181 | 7.727 | -2.703
CCOc1c(F)cccc1C(=O)N(CC)C(C)c1ccncc1 (stereo not shown) | -2.089 | -3.142 | 10
COc1ccc(CN2CC[C@@H]3[C@H]2CCC(=O)N3c2cnn(C)c2)cc1 | 11.26 | -1.832 | 8.571
CNC(=O)c1cccc(C2CNCCN2C(C)=O)c1 (stereo not shown) | -3.428 | 11.74 | 5.946
Cc1noc(C(C)C)c1C(=O)NS(=O)(=O)c1cccnc1 | 2.143 | -12.79 | -0.8333
CN1CCN(C(=O)c2cccn2C)Cc2cccnc21 | -3.635 | -16.76 | 5.714
Cc1nc(-c2cccc(C(=O)O)c2)cc(C2CCCN(C(C)C)C2)n1 (stereo not shown) | - | 20.65 | 2.26
CC(=O)N1CCO[C@@H]2CN(S(=O)(=O)c3cccnc3)C[C@@H]2C1 | - | -7.174 | 9.497
CS(=O)(=O)N1CCCN(CCCSCc2ccccc2)CC1 | -1.252 | 1.949 | 4.813
CN1CCN(c2ncccn2)CC1C(N)=O (stereo not shown) | 24.59 | 14.3 | 1.149
Cc1ccc(C(O)CNC(=O)NCc2nc(C)cs2)cc1 (stereo not shown) | -2.399 | -14.97 | 4.167
N#CC1(C(=O)N2C[C@H](Nc3ncccn3)[C@@H](C3CC3)C2)CCOCC1 | 0.08157 | -39.89 | 4.124
Cc1ncsc1CCN(C)Cc1ccc(CO)o1 | -0.5228 | -2.257 | 11.76
CSc1nccc(NCC2CNCCOC2)n1 (stereo not shown) | -2.794 | 5.412 | 10.16
Cc1nc(CNCc2cccnc2Oc2ccc(C)c(F)c2F)c[nH]1 | 2.018 | 1.872 | 11.96
Cn1cc(C2(C)CN(c3ncccc3C#N)CCO2)cn1 (stereo not shown) | 4.876 | -4.775 | 3.448
CN(C)Cc1nnn2c1CN(Cc1cccnc1)CCC2 | 5.784 | -2.132 | -0.6135
CC(Cn1cccn1)NC(=O)Nc1ccccn1 (stereo not shown) | -9.572 | -0.3767 | 5.714
O=C(Cc1ccco1)N1C[C@H]2CCC[C@@]2(COCc2cccnc2)C1 | -4.334 | 3.318 | 17.53
COCCO[C@H]1CCN(c2ccc(C)nn2)[C@H]1Cc1cnn(C)c1 | -4.478 | -4.605 | 0.4808
O=C(NCC1CC[C@@]2(CNCCOC2)O1)c1cnccn1 (stereo partly shown) | 22.48 | 17.98 | -4.301
CN(Cc1cccnc1)CC1CC12CCN(Cc1nccs1)CC2 (stereo not shown) | 24.59 | -6.871 | 0
CC(C)N1CCOC(CC(=O)N2CCCN(c3ccc(F)cc3)CC2)C1 (stereo not shown) | -6.735 | 11.44 | 8.458
CCOc1ccc(CN2CCC(c3ccn[nH]3)C2)cc1CO (stereo not shown) | -8.293 | 4.293 | 8.333
Cc1ncc(CN2CCC(n3cc(-c4ccc(F)cc4)nn3)CC2)cn1 | -3.649 | -7.26 | 3.093

The last 5 entries again:

{"structure": "O=C(NCC1CC[C@@]2(CNCCOC2)O1)c1cnccn1", "stereo": "stereo partly shown", "MtTrpRS": 22.48, "ClpP1P2": 17.98, "TcHisRS": -4.301}
{"structure": "CN(Cc1cccnc1)CC1CC12CCN(Cc1nccs1)CC2", "stereo": "stereo not shown", "MtTrpRS": 24.59, "ClpP1P2": -6.871, "TcHisRS": 0}
{"structure": "CC(C)N1CCOC(CC(=O)N2CCCN(c3ccc(F)cc3)CC2)C1", "stereo": "stereo not shown", "MtTrpRS": -6.735, "ClpP1P2": 11.44, "TcHisRS": 8.458}
{"structure": "CCOc1ccc(CN2CCC(c3ccn[nH]3)C2)cc1CO", "stereo": "stereo not shown", "MtTrpRS": -8.293, "ClpP1P2": 4.293, "TcHisRS": 8.333}
{"structure": "Cc1ncc(CN2CCC(n3cc(-c4ccc(F)cc4)nn3)CC2)cn1", "MtTrpRS": -3.649, "ClpP1P2": -7.26, "TcHisRS": 3.093}